At least one compound was matched to its structure with a doubt left.
Test system: Helicobacter pylori (SS1 strain)
Assay: Antibacterial activity in vitro by concentration, CFU assay, laser 10.0 J/cm^2
Format: cell-based
Conditions: 50.0 μg/ml free photosensitizer

Compound | colony result value compared to the NC group at 50.0 μg/ml
CC1=C(CCC(=O)O)c2cc3[nH]c(cc4nc(cc5[nH]c(cc1n2)c(C)c5C(C)O)C(C)=C4C(C)O)c(C)c3CCC(=O)O (centres unmarked) [HPP, hematoporphyrin, reference compound] | more than half
C=CC1=C(C)c2cc3[nH]c(cc4nc(cc5[nH]c(cc1n2)c(C)c5CCC(=O)O)C(CCC(=O)O)=C4C)c(C)c3C=C [PPIX, protoporphyrin IX, reference compound] | more than half
